The target in this assay is HA-SmD2 (UniProt P62316). In words: co-IP; exogenous SmD2 and p300 in transfected HEK293T cells; lysis buffer 20 mM HEPES pH 7.4, 150 mM NaCl, 1 mM EDTA, 0.1% Triton X-100; magnetic beads, 4 °C; immunoblot. A general note: Immunoblotting shows a protein as a band on a membrane.

Amino acid sequences for entries named in this document (tags omitted).
UniProt P62316: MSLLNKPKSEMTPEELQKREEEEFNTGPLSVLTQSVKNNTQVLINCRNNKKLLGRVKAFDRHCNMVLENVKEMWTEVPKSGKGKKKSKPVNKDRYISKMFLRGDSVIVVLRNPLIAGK
UniProt Q09472: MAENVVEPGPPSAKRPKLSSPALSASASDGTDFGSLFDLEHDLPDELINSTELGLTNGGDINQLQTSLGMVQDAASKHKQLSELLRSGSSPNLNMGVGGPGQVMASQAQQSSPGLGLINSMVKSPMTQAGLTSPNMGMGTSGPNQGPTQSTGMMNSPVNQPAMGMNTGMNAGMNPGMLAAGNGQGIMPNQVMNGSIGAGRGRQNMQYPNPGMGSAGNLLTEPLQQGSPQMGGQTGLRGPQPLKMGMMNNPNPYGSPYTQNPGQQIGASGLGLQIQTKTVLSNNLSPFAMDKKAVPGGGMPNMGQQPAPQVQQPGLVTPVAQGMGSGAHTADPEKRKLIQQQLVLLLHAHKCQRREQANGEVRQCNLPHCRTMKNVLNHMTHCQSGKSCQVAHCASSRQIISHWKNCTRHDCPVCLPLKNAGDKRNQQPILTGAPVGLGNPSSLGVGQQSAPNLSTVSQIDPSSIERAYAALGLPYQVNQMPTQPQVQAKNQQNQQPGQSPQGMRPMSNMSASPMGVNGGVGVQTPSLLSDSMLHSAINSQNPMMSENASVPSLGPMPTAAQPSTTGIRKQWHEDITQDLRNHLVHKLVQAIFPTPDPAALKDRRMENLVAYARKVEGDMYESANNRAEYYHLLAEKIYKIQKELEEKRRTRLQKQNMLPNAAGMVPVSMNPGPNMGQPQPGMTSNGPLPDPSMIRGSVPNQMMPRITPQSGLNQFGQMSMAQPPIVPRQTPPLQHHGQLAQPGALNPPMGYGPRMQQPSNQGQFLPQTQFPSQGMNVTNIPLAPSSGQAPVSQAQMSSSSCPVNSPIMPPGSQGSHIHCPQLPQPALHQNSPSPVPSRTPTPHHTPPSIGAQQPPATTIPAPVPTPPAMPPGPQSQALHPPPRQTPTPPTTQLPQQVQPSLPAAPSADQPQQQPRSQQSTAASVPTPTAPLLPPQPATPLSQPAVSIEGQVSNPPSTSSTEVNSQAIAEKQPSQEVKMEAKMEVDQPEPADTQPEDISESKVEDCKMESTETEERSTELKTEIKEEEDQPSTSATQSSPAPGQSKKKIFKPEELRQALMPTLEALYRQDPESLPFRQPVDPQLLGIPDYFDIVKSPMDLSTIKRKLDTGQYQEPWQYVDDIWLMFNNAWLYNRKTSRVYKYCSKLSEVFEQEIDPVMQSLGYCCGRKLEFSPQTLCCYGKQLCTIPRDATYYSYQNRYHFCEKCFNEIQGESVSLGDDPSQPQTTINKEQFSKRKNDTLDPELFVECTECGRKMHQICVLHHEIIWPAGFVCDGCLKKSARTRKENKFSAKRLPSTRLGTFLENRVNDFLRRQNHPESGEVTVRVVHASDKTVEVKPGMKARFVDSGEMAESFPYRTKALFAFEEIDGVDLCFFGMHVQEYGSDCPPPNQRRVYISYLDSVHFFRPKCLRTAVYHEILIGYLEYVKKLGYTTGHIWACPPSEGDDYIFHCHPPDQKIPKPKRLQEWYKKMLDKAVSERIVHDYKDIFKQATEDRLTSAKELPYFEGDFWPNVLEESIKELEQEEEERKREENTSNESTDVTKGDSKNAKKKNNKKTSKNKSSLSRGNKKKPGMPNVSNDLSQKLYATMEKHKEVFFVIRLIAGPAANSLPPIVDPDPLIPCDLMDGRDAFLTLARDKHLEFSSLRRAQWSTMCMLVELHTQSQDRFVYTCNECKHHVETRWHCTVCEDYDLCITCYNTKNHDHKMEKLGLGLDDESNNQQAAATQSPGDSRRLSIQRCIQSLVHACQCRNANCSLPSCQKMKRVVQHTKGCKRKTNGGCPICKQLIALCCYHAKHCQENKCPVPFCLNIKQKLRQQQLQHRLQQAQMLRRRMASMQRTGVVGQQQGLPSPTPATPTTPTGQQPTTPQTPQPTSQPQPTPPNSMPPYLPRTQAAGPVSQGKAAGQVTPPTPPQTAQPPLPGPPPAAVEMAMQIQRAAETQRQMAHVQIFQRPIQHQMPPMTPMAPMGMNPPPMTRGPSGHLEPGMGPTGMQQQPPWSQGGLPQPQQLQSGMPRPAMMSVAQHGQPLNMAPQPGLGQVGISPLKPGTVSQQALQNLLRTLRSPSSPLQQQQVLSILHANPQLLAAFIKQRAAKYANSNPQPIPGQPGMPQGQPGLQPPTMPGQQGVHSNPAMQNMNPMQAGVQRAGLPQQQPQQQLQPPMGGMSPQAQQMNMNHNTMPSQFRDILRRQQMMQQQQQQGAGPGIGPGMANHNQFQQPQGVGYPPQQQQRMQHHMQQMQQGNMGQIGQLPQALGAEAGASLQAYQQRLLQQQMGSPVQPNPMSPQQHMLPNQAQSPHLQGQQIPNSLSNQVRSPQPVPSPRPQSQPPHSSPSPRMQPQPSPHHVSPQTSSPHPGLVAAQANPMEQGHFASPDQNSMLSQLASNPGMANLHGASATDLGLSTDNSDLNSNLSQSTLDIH

Data on 1 substance can be found in publication PMC11189467.

Results are given in words; binding and its absence hold for the method and conditions named. In cells and extracts the contact can be indirect. Some results given as binding are weak or reduced against the parent protein; the word gives no strength.

In the case of “Flag-tagged p300 (from UniProt Q09472 1-2414) (enzyme)”, the binding entry was “binds”.
